Measured values taken from PubChem BioAssay AID445 (National Center for Advancing Translational Sciences (NCATS), 2006).
This is one part of the list. Shown are side measurements of this screen, not its main read-out; they come without a call. Compounds called inactive in the main read-out are mostly missing here. The note in brackets gives the kind of curve behind each potency; many fits are weak.

Test: IkB Signaling
Conditions: ABC-DLBCL IkBa-CBG/CBR dual luciferase ratio (green luciferase fused to IkBa over red control in OCI-Ly3 lymphoma cells), 4 h
Outline: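 Luminescence ratio of IκBα-fused green versus native red beetle luciferase in OCI-Ly3 cells, 4 h post-doxycycline with compound; red signal alone, scaled from basal (0%) to zero light (-100%), flagged nonspecific or cytotoxic effects.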

[1] = measured here: control luc red channel unless noted
[2] = measured here: IkB-luc green channel
[3] = measured here: control luc red channel

Compound: Cc1cc(C)cc(NC(=O)C(=O)NC(C)c2ccccc2)c1 (stereo not drawn)
- AC50 [1]: 20 µM [falling, single point]

Compound: CC(C)c1ccc2oc(-c3cccc(NC(=O)c4ccc5c(c4)OCCO5)c3)nc2c1
- AC50 [1]: 0.316 µM [falling, full curve]

Compound: Cc1ccc(-n2c(SCC(=O)Nc3cccc(F)c3)nc3c(oc4ccccc43)c2=O)cc1C
- AC50 [1]: 10 µM [falling, partial curve]

Compound: O=C(O)C(F)(F)S(=O)(=O)O
- AC50 [1]: 39.8 µM [rising, single point] [measured here: IkB-luc green channel]

Compound: Cc1ccc2oc3c(c(=O)c2c1)C(c1cccc(O)c1)N(Cc1ccccc1Cl)C3=O (stereo not drawn)
- AC50 [1]: 20 µM [falling, partial curve]

Compound: CC(C)Sc1ncc(Cl)c(C(=O)N(Cc2ccc(F)cc2)C2CCS(=O)(=O)C2)n1 (stereo not drawn)
- AC50 [1]: 12.6 µM [falling, partial curve]

Compound: CCOC(=O)C(C(C)=O)c1c(Br)c(O)c(O)c2c(C(=O)c3ccc(C)cc3)coc12 (stereo not drawn)
- AC50 [1]: 2 µM [falling, full curve]

Compound: CC1=C(C(=O)Nc2ccc(C)cc2)C(c2ccc(Cl)cc2)n2nnnc2N1 (stereo not drawn)
- AC50 [1]: 3.16 µM [falling, partial curve]

Compound: Cc1ccc(NC(=O)CN2C(=O)C(C)(C)c3ccccc32)cc1
- AC50 [1]: 0.0316 µM [falling, full curve, poor fit]

Compound: COc1cccc(C2c3c(-c4ccccc4O)n[nH]c3C(=O)N2CCc2ccc(OC)c(OC)c2)c1 (stereo not drawn)
- AC50 [1]: 20 µM [falling, single point]

Compound: Cc1ccc(Sc2c(C(=O)NCc3ccccc3C)[nH]c3ccccc23)cc1
- AC50 [1]: 20 µM [falling, single point]

Compound: COc1cc(NC(=O)c2cnc3c(-c4ccc(F)cc4)c(C)nn3c2C)cc(OC)c1
- AC50 [1]: 31.6 µM [falling, single point]

Compound: CC1=C(/C=C/C(C)=C/C=C/C(C)=C/C=O)C(C)(C)CCC1
- AC50 [2]: 0.02 µM [rising, full curve, poor fit]
- AC50 [3]: 0.01 µM [rising, full curve]

Compound: C/C=C/Cn1c(SCCCc2ccccc2)nc2c1c(=O)[nH]c(=O)n2C
- AC50 [2]: 31.6 µM [falling, partial curve]
- AC50 [3]: 15.8 µM [falling, partial curve]

Compound: Cc1ccc(-c2nc3ccc(Cl)cn3c2Nc2ccc3c(c2)OCCO3)s1
- AC50 [1]: 1 µM [falling, partial curve]

Compound: CCCOc1ccc(CN(C(=O)c2nc(SC(C)C)ncc2Cl)C2CCS(=O)(=O)C2)cc1 (stereo not drawn)
- AC50 [1]: 39.8 µM [falling, single point]

Compound: CSc1ccc(CCNC(=O)CCc2c(C)nc3cc(-c4ccccc4)nn3c2C)cc1
- AC50 [1]: 3.98 µM [falling, partial curve]

Compound: N#Cc1ccccc1Cn1c(=O)n(Cc2ccc(C(=O)NC3CCN(Cc4ccccc4)CC3)cc2)c(=O)c2ccccc21
- AC50 [1]: 0.0794 µM [rising, full curve, poor fit]

Compound: O=C(Nc1c(C(=O)Nc2cccc(F)c2)oc2ccccc12)c1cc2ccccc2o1
- AC50 [1]: 0.251 µM [falling, partial curve]

Compound: CCc1cc2c(NCc3ccco3)ncnc2s1
- AC50 [1]: 20 µM [falling, partial curve]

Compound: COc1cc2[nH]c(=O)n(CCCCCC(=O)NCCc3ccccc3)c(=O)c2cc1OC
- AC50 [1]: 0.0794 µM [falling, full curve, poor fit]

Compound: COc1ccc(CCNC(=O)CCCCCn2c(=O)[nH]c3cc(OC)c(OC)cc3c2=O)cc1OC
- AC50 [1]: 12.6 µM [falling, partial curve]

Compound: CCOC(=O)c1cccc(NC(c2nnc(-c3ccccc3)o2)c2ccccc2F)c1 (stereo not drawn)
- AC50 [1]: 20 µM [falling, partial curve]

Compound: CCc1ccc(NC(=O)Cn2c(=O)oc3cc(S(=O)(=O)NCc4ccccc4)ccc32)cc1
- AC50 [1]: 0.158 µM [falling, full curve, poor fit]

Compound: Cc1ccc(CNC(=O)C2CCCN(c3nnc(-n4c(C)ccc4C)s3)C2)cc1 (stereo not drawn)
- AC50 [1]: 31.6 µM [falling, single point]

Compound: CCC(c1nnnn1CCc1ccccc1)N(Cc1ccco1)Cc1cc2c(C)ccc(C)c2[nH]c1=O (stereo not drawn)
- AC50 [1]: 5.01 µM [falling, full curve]

Compound: COc1ccc(NC(=O)CSc2nc(O)c(C/C=C/c3ccccc3)c(=O)[nH]2)cc1
- AC50 [1]: 15.8 µM [falling, partial curve]

Compound: CCOC(=O)C(C(=O)N1CCOCC1)C1CCCCC1 (stereo not drawn)
- AC50 [1]: 20 µM [falling, partial curve]

Compound: O=C(NCc1ccccc1)C1CCN(C(=O)c2cnn(-c3ccccc3)c2-n2cccc2)CC1
- AC50 [1]: 0.0631 µM [falling, full curve, poor fit]

Compound: COc1ccc2cc(C(=O)NCc3ccc4c(c3)CCN4C(=O)c3ccc(C)cc3)[nH]c2c1
- AC50 [1]: 39.8 µM [falling, single point]

Compound: O=C(NCc1ccccc1Cl)c1ccc(CSCc2cccc(F)c2)o1
- AC50 [1]: 39.8 µM [falling, single point]

Compound: O=C(O)CCn1cnc2onc(-c3ccccc3Cl)c2c1=O
- AC50 [1]: 0.316 µM [rising, full curve, poor fit]

Compound: O=C(Nc1c(C(=O)Nc2cccc(C(F)(F)F)c2)oc2ccccc12)c1cc(=O)c2ccccc2o1
- AC50 [1]: 10 µM [rising, partial curve]

Compound: O=C(NCc1ccc(Cl)cc1)c1ccc2c(c1)NC(=O)C(CS(=O)(=O)Cc1ccccc1Cl)N2 (stereo not drawn)
- AC50 [1]: 25.1 µM [falling, single point]

Compound: CCn1c(=O)c2cc(C(=O)NCCCN(C)Cc3ccccc3)sc2c2ccccc21
- AC50 [1]: 15.8 µM [falling, partial curve]

Compound: CCc1cccc(NC(=O)Cn2cc(C(=O)c3ccncc3)c(=O)c3cc(C)c(C)cc32)c1
- AC50 [1]: 15.8 µM [falling, single point]

Compound: COc1ccc(-c2cn3c(C)c(C(=O)NCCN4CCOCC4)sc3n2)cc1
- AC50 [1]: 1 µM [falling, full curve]

Compound: COC(=O)c1cnc(N2CCN(c3ccccc3OC)CC2)c2ccccc12
- AC50 [1]: 39.8 µM [falling, partial curve]

Compound: CCOC(=O)c1sc2ccccc2c1S(=O)(=O)NCc1ccc(F)cc1
- AC50 [1]: 12.6 µM [falling, partial curve]

Compound: CCC(C)NC(=O)c1cc(-c2ccc(OC)cc2)on1 (stereo not drawn)
- AC50 [1]: 2 µM [falling, partial curve]

Compound: COc1ccc(Nc2nc(N3CCCC3)nc3ccccc23)c(OC)c1
- AC50 [1]: 25.1 µM [falling, single point]

Compound: CCOC(=O)c1ccc(NC(=O)CSc2nccn2-c2ccc(OCC)cc2)cc1
- AC50 [1]: 3.16 µM [falling, full curve, poor fit]

Compound: Cc1cccc(N2CCN(C(=O)Cn3cnc4sc(C)c(S(=O)(=O)N5CCN(c6ncccn6)CC5)c4c3=O)CC2C)c1 (stereo not drawn)
- AC50 [1]: 31.6 µM [falling, single point]

Compound: FC(F)(F)c1cccc(-c2nnn3c2nc(NC2CCCCC2)c2ccccc23)c1
- AC50 [1]: 20 µM [falling, partial curve]

Compound: O=C1CCN(S(=O)(=O)c2ccccc2)C2CCCCC12 (stereo not drawn)
- AC50 [1]: 12.6 µM [falling, partial curve]

Compound: CCC(C)NC(=O)C1CCN(C(=O)c2ccc(-n3ccc4ccccc43)s2)CC1 (stereo not drawn)
- AC50 [1]: 2.51 µM [falling, full curve]

Compound: COc1cc([N+](=O)[O-])ccc1NC(=O)N1CCN(c2cc(-c3noc(C)n3)ccc2C)CC1
- AC50 [1]: 1 µM [rising, single point]

Compound: COc1ccc(NC(=O)C(C)n2nnc3sc(-c4ccccc4)cc3c2=O)cc1Cl (stereo not drawn)
- AC50 [1]: 3.98 µM [falling, partial curve]

Compound: CCOc1ccc(CCNC(=O)c2cc(=O)[nH]c3ccc(S(=O)(=O)N4CCCCC4)cc23)cc1OCC
- AC50 [1]: 1 µM [rising, partial curve]

Compound: CC(C)C(=O)Nc1ccc(NC(=O)c2ccco2)cn1
- AC50 [1]: 0.00316 µM [rising, full curve, poor fit]

Compound: COc1cccc(NC(=O)C(=O)NCCc2csc(-c3ccc(C(F)(F)F)cc3)n2)c1
- AC50 [1]: 0.1 µM [falling, full curve]

Compound: CCCOc1ccc2oc(=O)c3c(c2c1)CCCN3C(=O)CN(C)Cc1ccccc1
- AC50 [1]: 12.6 µM [falling, partial curve]

Compound: Cc1cccc(N(C)c2nc3ccc(C)cc3n3cnnc23)c1
- AC50 [1]: 12.6 µM [falling, partial curve]

Compound: CCCCOC(=O)c1[nH]c2c(c1C)C(=O)CC(c1cc(OC)c(OC)c(OC)c1)C2 (stereo not drawn)
- AC50 [1]: 2.51 µM [falling, full curve]

Compound: COc1ccccc1-c1cc(C(=O)N2CCc3ccccc3C2)no1
- AC50 [1]: 7.94 µM [falling, partial curve]

Compound: O=C(Nc1nnc(S(=O)(=O)N2CCCCCC2)s1)c1ccccc1Cl
- AC50 [1]: 15.8 µM [falling, partial curve]

Compound: CCOc1ccc(NC(=O)c2cc3c(s2)-c2ccccc2OC3)cc1
- AC50 [1]: 6.31 µM [falling, full curve]

Compound: Cc1cccc(NC(=O)C(Cc2ccccc2)n2cccc2)c1C (stereo not drawn)
- AC50 [1]: 25.1 µM [falling, single point]

Compound: COC(=O)c1cc2sccc2n1Cc1nc(-c2cccc(Br)c2)oc1C
- AC50 [1]: 39.8 µM [falling, partial curve]

Compound: COc1ccccc1Nc1c2c(nc3ccc(NC(=O)c4cccc(OC)c4OC)cc13)CCCC2
- AC50 [1]: 31.6 µM [falling, single point]

Compound: COc1ccc(CCNC(=O)c2cnc3sc(N4CCC(C)CC4)nn3c2=O)cc1OC
- AC50 [1]: 31.6 µM [rising, partial curve]
